Reference: PubChem BioAssay AID1224829 (NIAID, 2016)
Purpose: 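Secondary check of hits that alter LPS-induced p65 translocation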 (follow-up of hits). System: mouse RAW264.7 G9 macrophage reporter cells. Reagent: single siRNA against mouse genes, 100 nM. Time to read-out: 2 days of siRNA knock-down, then 40 min of LPS before fixing. Challenge: LPS (Salmonella minnesota R595) at 10 ng/ml. Measurement: 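Imaging of GFP-p65 after 40 min of LPS; nuclear over perinuclear ring intensity ratio, scaled to plate median and non-targeting control wells, given as z-score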. Direction: p65 translocation z-score: higher = more nuclear NF-kappaB p65 after LPS. Active means: 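An siRNA is called active when the mean z-score of its two replicates is above 2 or below -2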. Calls: active = changed p65 translocation (either direction); inactive = no clear change.
Here is a random part of about 3,800 reagents. 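Calls cover raised and lowered translocation; gene median uses one vendor's three siRNAs; qiagen siRNAs acted more weakly than ambion siRNAs.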 A number with no mark means an inactive call. Further read-outs or replicates are left out here.

For Mpzl3 (myelin protein zero-like 3) [SID315488886], siRNA vendor or control pool ambion single siRNA, what was measured?
p65 translocation z-score, replicate mean: 0.816; p65 translocation z-score, replicate 1: 2.23

What did the screen give for Mpzl3 (myelin protein zero-like 3) [SID315488887], siRNA vendor or control pool ambion single siRNA?
p65 translocation z-score, replicate mean: -5.2 (active); p65 translocation z-score, replicate 1: -5.81

With Mpzl3 (myelin protein zero-like 3) [SID315488888], siRNA vendor or control pool ambion single siRNA, what was measured?
p65 translocation z-score, replicate mean: -1.31; p65 translocation z-score, replicate 1: -1.57

What is on record for Mpzl3 (myelin protein zero-like 3) [SID315488889], siRNA vendor or control pool qiagen single siRNA?
p65 translocation z-score, replicate mean: -2.2 (active); p65 translocation z-score, replicate 1: -1.72

With Mpzl3 (myelin protein zero-like 3) [SID315488890], siRNA vendor or control pool qiagen single siRNA, what does the deposit list?
p65 translocation z-score, replicate mean: 5.14 (active); p65 translocation z-score, replicate 1: 5.14

With Mpzl3 (myelin protein zero-like 3) [SID315488891], siRNA vendor or control pool qiagen single siRNA, how do the results read?
p65 translocation z-score, replicate mean: -2.53 (active); p65 translocation z-score, replicate 1: -2.89

With Arpc2 (actin related protein 2/3 complex, subunit 2) [SID315486852], siRNA vendor or control pool qiagen single siRNA, what does the deposit list?
p65 translocation z-score, replicate mean: -0.13; p65 translocation z-score, replicate 1: -0.837

Which result is listed for Arpc2 (actin related protein 2/3 complex, subunit 2) [SID315486853], siRNA vendor or control pool qiagen single siRNA?
p65 translocation z-score, replicate mean: -0.779; p65 translocation z-score, replicate 1: -0.909

What is on record for Arpc2 (actin related protein 2/3 complex, subunit 2) [SID315486854], siRNA vendor or control pool qiagen single siRNA?
p65 translocation z-score, replicate mean: -0.589; p65 translocation z-score, replicate 1: -0.483

For Klra22 (killer cell lectin-like receptor subfamily A, member 22) [SID315487323], siRNA vendor or control pool ambion single siRNA, what was measured?
p65 translocation z-score, replicate mean: -2.56 (active); p65 translocation z-score, replicate 1: -1.84

What did the screen give for Klra22 (killer cell lectin-like receptor subfamily A, member 22) [SID315487324], siRNA vendor or control pool ambion single siRNA?
p65 translocation z-score, replicate mean: -2.03 (active); p65 translocation z-score, replicate 1: -2.42

What is on record for Klra22 (killer cell lectin-like receptor subfamily A, member 22) [SID315487325], siRNA vendor or control pool ambion single siRNA?
p65 translocation z-score, replicate mean: -2.8 (active); p65 translocation z-score, replicate 1: -3.7

With Klra22 (killer cell lectin-like receptor subfamily A, member 22) [SID315487326], siRNA vendor or control pool qiagen single siRNA, how do the results read?
p65 translocation z-score, replicate mean: 5.41 (active); p65 translocation z-score, replicate 1: 2.6

How did the screen score Klra22 (killer cell lectin-like receptor subfamily A, member 22) [SID315487327], siRNA vendor or control pool qiagen single siRNA?
p65 translocation z-score, replicate mean: -1.7; p65 translocation z-score, replicate 1: -0.854

With Klra22 (killer cell lectin-like receptor subfamily A, member 22) [SID315487328], siRNA vendor or control pool qiagen single siRNA, how do the results read?
p65 translocation z-score, replicate mean: -1.29; p65 translocation z-score, replicate 1: -1.12

Part of the list above, reformatted.
gene,PubChem SID,siRNA vendor or control pool,"p65 translocation z-score, replicate mean","p65 translocation z-score, replicate 1"
Mpzl3 (myelin protein zero-like 3),SID315488891,qiagen single siRNA,-2.53 (active),-2.89
"Arpc2 (actin related protein 2/3 complex, subunit 2)",SID315486852,qiagen single siRNA,-0.13,-0.837
"Arpc2 (actin related protein 2/3 complex, subunit 2)",SID315486853,qiagen single siRNA,-0.779,-0.909
"Arpc2 (actin related protein 2/3 complex, subunit 2)",SID315486854,qiagen single siRNA,-0.589,-0.483

Additional results follow.
With Scgb1a1 (secretoglobin, family 1A, member 1) [SID315485082], siRNA vendor or control pool ambion single siRNA, what does the deposit list?
p65 translocation z-score, replicate mean: 3.44 (active); p65 translocation z-score, replicate 1: 4.61

With Scgb1a1 (secretoglobin, family 1A, member 1) [SID315485083], siRNA vendor or control pool ambion single siRNA, what was measured?
p65 translocation z-score, replicate mean: -1.78; p65 translocation z-score, replicate 1: -1.23

Which result is listed for Scgb1a1 (secretoglobin, family 1A, member 1) [SID315485084], siRNA vendor or control pool ambion single siRNA?
p65 translocation z-score, replicate mean: -6.86 (active); p65 translocation z-score, replicate 1: -7.41

For Scgb1a1 (secretoglobin, family 1A, member 1) [SID315485085], siRNA vendor or control pool qiagen single siRNA, what was measured?
p65 translocation z-score, replicate mean: -2.75 (active); p65 translocation z-score, replicate 1: -3.67

With Scgb1a1 (secretoglobin, family 1A, member 1) [SID315485086], siRNA vendor or control pool qiagen single siRNA, what was measured?
p65 translocation z-score, replicate mean: -1.82; p65 translocation z-score, replicate 1: -2.66

With Scgb1a1 (secretoglobin, family 1A, member 1) [SID315485087], siRNA vendor or control pool qiagen single siRNA, what was measured?
p65 translocation z-score, replicate mean: 3.32 (active); p65 translocation z-score, replicate 1: 2.44

For Csn1s2a (casein alpha s2-like A) [SID315484011], siRNA vendor or control pool ambion single siRNA, what does the deposit list?
p65 translocation z-score, replicate mean: -2.62 (active); p65 translocation z-score, replicate 1: -1.91

With Csn1s2a (casein alpha s2-like A) [SID315484012], siRNA vendor or control pool ambion single siRNA, what was measured?
p65 translocation z-score, replicate mean: -0.918; p65 translocation z-score, replicate 1: 0.247

With Csn1s2a (casein alpha s2-like A) [SID315484013], siRNA vendor or control pool ambion single siRNA, what was measured?
p65 translocation z-score, replicate mean: 0.135; p65 translocation z-score, replicate 1: 0.661

For Csn1s2a (casein alpha s2-like A) [SID315484014], siRNA vendor or control pool qiagen single siRNA, how do the results read?
p65 translocation z-score, replicate mean: 0.932; p65 translocation z-score, replicate 1: 1.38

With Csn1s2a (casein alpha s2-like A) [SID315484015], siRNA vendor or control pool qiagen single siRNA, what was measured?
p65 translocation z-score, replicate mean: 0.872; p65 translocation z-score, replicate 1: 1.32

With Csn1s2a (casein alpha s2-like A) [SID315484016], siRNA vendor or control pool qiagen single siRNA, how do the results read?
p65 translocation z-score, replicate mean: 0.74; p65 translocation z-score, replicate 1: 0.323

For Taf12 (TATA-box binding protein associated factor 12) [SID315486363], siRNA vendor or control pool ambion single siRNA, what was measured?
p65 translocation z-score, replicate mean: -1.21; p65 translocation z-score, replicate 1: -2.86

For Taf12 (TATA-box binding protein associated factor 12) [SID315486364], siRNA vendor or control pool ambion single siRNA, what does the deposit list?
p65 translocation z-score, replicate mean: -2.98 (active); p65 translocation z-score, replicate 1: -3.17

What is on record for Taf12 (TATA-box binding protein associated factor 12) [SID315486365], siRNA vendor or control pool ambion single siRNA?
p65 translocation z-score, replicate mean: -0.862; p65 translocation z-score, replicate 1: -0.595
